# Laboratory results reported in PubChem BioAssay AID720540 (National Center for Advancing Translational Sciences (NCATS), 2013).
# By UniProt entry, the sequences of proteins in these tests, tags left out. Where a name states a change or a piece, a line headed by the entry shows the natural chain unless it says otherwise.
# UniProt O00167: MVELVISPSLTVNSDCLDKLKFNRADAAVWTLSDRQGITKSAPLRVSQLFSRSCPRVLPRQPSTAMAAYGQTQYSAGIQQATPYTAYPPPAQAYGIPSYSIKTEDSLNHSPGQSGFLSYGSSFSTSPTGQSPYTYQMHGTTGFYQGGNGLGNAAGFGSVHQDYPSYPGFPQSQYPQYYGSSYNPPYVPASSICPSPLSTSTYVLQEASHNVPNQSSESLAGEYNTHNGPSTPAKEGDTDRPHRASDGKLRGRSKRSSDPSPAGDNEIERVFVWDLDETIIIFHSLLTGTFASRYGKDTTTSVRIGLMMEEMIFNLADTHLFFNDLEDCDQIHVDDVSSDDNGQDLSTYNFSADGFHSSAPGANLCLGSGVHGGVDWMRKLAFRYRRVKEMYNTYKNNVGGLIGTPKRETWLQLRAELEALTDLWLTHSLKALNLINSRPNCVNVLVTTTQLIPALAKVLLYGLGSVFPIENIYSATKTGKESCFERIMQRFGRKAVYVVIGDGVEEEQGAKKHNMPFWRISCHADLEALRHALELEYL
# Values joined by “and” are separate entries in the source; they are usually repeats but may differ in a detail not shown here. Equal values may be shown once. Hit rate of the full screen: of about 1,300 compounds, about 460 (35%) were called active. Inconclusive means that the source gave no clear call. Such entries were picked first, then a sample of the others. The call rests on the fitted dose curve; in most records, active means well fitted inhibition curve with a large enough effect; inconclusive means small, poorly fitted or top-dose-only effect; inactive means flat fitted curve, though single readings scatter. Potencies beside an inconclusive call are fits to weak or partial responses and may not hold up.
# Target: Protein phosphatase EYA2 (Homo sapiens) (UniProt O00167)
# Assay: qHTS for Inhibitors of the Phosphatase Activity of Eya2: Confirmatory Assay for Cherry-picked Compounds; further: nearly all actives have a fitted effect of over 65% in size;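 on activity change, negative = inhibition: 0% = DMSO wells and -100% = EGTA control giving full inhibition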
# Conditions: purified EYA2 phosphatase activity, qHTS confirmation; activity change, negative = inhibition: at 46.1 µM (top of the series)
# Outline: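 Eya2 (0.2 uM working solution) preincubated 10 min at room temperature with compound in pH 7.5 HEPES buffer with MgCl2, BSA, DTT. OMFP added (50 uM working solution), 10 min more; fluorescence 485/525 nm, normalized to EGTA and DMSO.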
# Potency means the concentration at half of the fitted maximal effect.
SMILES,Potency,"activity change, negative = inhibition"
CCn1c(=S)[nH]c2sc3c(c2c1=O)CCCC3,"inconclusive: 16.9 µM [inhibitor, partial curve]",
NC(=O)C1CCN(CC(=O)Nc2ccc3c(c2)OCO3)CC1,,inactive: 22.6%
O=C(CN1C(=O)c2ccccc2C1=O)Nc1nc(-c2cccc([N+](=O)[O-])c2)cs1,,inactive: -5.34%
O=c1c2ccccc2oc2nc3n(c(=O)c12)CCCS3,"inconclusive: 15.1 µM [inhibitor, partial curve]",
O=C(NCc1ccc2c3c(cccc13)C(=O)N2)c1cccs1,,inactive: -19.4%
COc1ccc(C(=O)C2CCCN(C(=O)c3cccc(N(C)C)c3)C2)cc1OC (configuration not stated),,inactive: -24.1%
Cc1ccc(S(=O)(=O)/C(C#N)=C/c2c(N3CCOCC3)nc3c(C)cccn3c2=O)cc1,"inconclusive: 9.53 µM [inhibitor, partial curve]",
Cc1csc(NC(=O)c2cc(=O)[nH]c3ccccc23)n1,"inconclusive: 15.1 µM [inhibitor, partial curve]",
CCn1ccnc1CNCc1ccc(OCC(O)CN(C)Cc2ccccc2)cc1 (configuration not stated),"inconclusive: 15.1 µM [inhibitor, single point]",
Cc1ccc(NC(=O)c2cc3c(CO)cnc(C)c3oc2=Nc2cccc(C(N)=O)c2)cc1,,inactive: -28.9%
NNC(=O)c1nc[nH]c1C(=O)Nc1ccccn1,active: 8.49 µM,
O=C(NN=C1CCCC1)c1[nH]c2ccc(Br)cc2c1-c1ccccc1,,inactive: -27.5%
COc1ccc(N=C2SC(C(=O)N3CCN(c4ccc([N+](=O)[O-])cc4)CC3)CC(=O)N2C)cc1 (configuration not stated),,inactive: -14.5%
CC1CCCCC1NC(=O)COC(=O)c1c2c(nc3ccccc13)/C(=C/c1ccco1)CC2 (configuration not stated),"inconclusive: 7.57 µM [inhibitor, partial curve]",
CC(SC1=NCCS1)C(=O)Nc1nnc(-c2ccc(Br)cc2)s1 (configuration not stated),active: 6.01 µM,
CC(C)c1cccc(-c2ccc3c(c2)S(=O)(=O)c2cccc(C(=O)O)c2C3=O)c1,active: 21.3 µM,
CC(Oc1ccc(F)cc1)C(=O)Nc1cc(S(=O)(=O)N2CCCCC2)ccc1N1CCN(C)CC1 (configuration not stated),,inactive: -25.7%
OC(c1ccc(Cl)cc1)c1nccc2ccccc12 (configuration not stated),,inactive: -9.24%
COc1ccc(N2CCN(C(=O)CCC(=O)N3CC(C)Oc4ccc(C)cc43)CC2)cc1 (configuration not stated),"inconclusive: 19 µM [inhibitor, partial curve]",
COc1ccc(S(=O)(=O)N2CCC3CC2c2cc(N4CCOCC4)ccc23)cc1 (configuration not stated),,inactive: 17.1%
N#C/C(=C\c1c(N2CCCCC2)nc2ccccn2c1=O)S(=O)(=O)c1ccccc1,"inconclusive: 19 µM [inhibitor, partial curve]",
O=C(Nc1nc(-c2ccco2)c(-c2ccco2)s1)C1CC(=O)N(c2ccc3c(c2)OCCO3)C1 (configuration not stated),active: 19 µM,
O=C(O)c1c(C(=O)N2N=C3/C(=C/c4ccccc4)CCCC3C2c2ccccc2)cccc1[N+](=O)[O-] (configuration not stated),,inactive: -12.9%
c1ccc2c(c1)nc(Nc1ccc(N3CCCCC3)cc1)c1nncn12,active: 16.9 µM,

SMILES,Potency,"activity change, negative = inhibition"
COc1ccc(/C=C2\CCc3ccccc3C2=O)cc1CN1CCOCC1,,inactive: -17.2%
CC(C)S(=O)(=O)c1cnc(-c2ccccn2)nc1N,active: 16.9 µM,
S=C(NC1CC1)NC1CCCc2ccccc21 (configuration not stated),,inactive: -11.4%
CC1CCCN(S(=O)(=O)c2ccc(C(=O)Nc3nnc(-c4ccco4)o3)cc2)C1 (configuration not stated),"inconclusive: 15.1 µM [inhibitor, single point]",
O=C(O)CSc1ccc2nnc(-c3cccnc3)n2n1,"inconclusive: 19 µM [inhibitor, single point] and inconclusive: 16.9 µM [inhibitor, partial curve]",
CCCC(=O)Oc1ccc2c(C)cc(=O)oc2c1,"inconclusive: 21.3 µM [inhibitor, partial curve]",
COc1ccc(-c2c/c(=N\c3nc(-c4ccccc4)c(C)s3)c3ccccc3o2)cc1O,"inconclusive: 13.5 µM [inhibitor, partial curve]",
CC1CCCCC1Nc1nc2ccc(Cl)cc2n2cnnc12 (configuration not stated),,inactive: -24%
Cc1oc(-c2ccc(-c3ccccc3)cc2)nc1CN(C)C1CCOC1 (configuration not stated),"inconclusive: 15.1 µM [inhibitor, partial curve]",
N#C/C(=C\c1ccc(-c2ccc(C(=O)O)cc2)o1)C(=O)Nc1ccc(F)cc1,active: 16.9 µM,
Cc1c(CC(=O)NCC(=O)O)c(=O)oc2cc3occ(-c4ccccc4)c3cc12,active: 16.9 µM,
CC(=O)NS(=O)(=O)c1ccc2c(c1)C(=O)c1cc(S(=O)(=O)NC(C)=O)ccc1-2,"inconclusive: 19 µM [inhibitor, partial curve]",
Cc1ccc(NC2=C/C(=N/S(=O)(=O)c3cccs3)c3ccccc3C2=O)cc1,,inconclusive: -34.5% [inhibitor]
COc1cc(C=C(c2nc3ccccc3s2)c2nc3ccccc3s2)ccc1O,"inconclusive: 15.1 µM [inhibitor, partial curve]",
Cc1ccc(S(=O)(=O)NN2C(=O)/C(=C/c3cccc(F)c3)SC2=S)cc1,"inconclusive: 19 µM [inhibitor, partial curve]",
COc1cc2c(cc1OC)C(c1ccc([N+](=O)[O-])cc1)NCC2 (configuration not stated),,inactive: -11.5%
COc1ccc2[nH]cc(CCn3ccc(O)c(C/C=C/c4ccccc4)c3=O)c2c1,active: 21.3 µM,
Cc1ccc(Nc2nc(-c3cccnc3)nc3ccccc23)cc1,,inactive: -29.8%
Cc1ccc(C(=O)Oc2ccc(C(=O)COC(=O)c3cnccn3)cc2)cc1,active: 0.478 µM,
CCN1CCN(c2nn3c(=O)c4ccccc4nc3c3ccccc23)CC1,"inconclusive: 9.53 µM [inhibitor, partial curve]",
NSc1nc(N)c2nc(-c3ccccc3)c(-c3ccccc3)nc2n1,"inconclusive: 6.01 µM [inhibitor, partial curve]",
Oc1[nH]c2ccccc2c1N=Nc1nc2ccccc2s1,,inactive: -30%
CN(CC(=O)Nc1cccc(F)c1)C(=O)c1ccc(COc2ccccc2)cc1,,inactive: -2.16%
CCOc1ccc(NC(=O)CN(C)C(=O)C2CCN(C(=O)Nc3ccccc3)CC2)cc1OCC,"inconclusive: 15.1 µM [inhibitor, partial curve]",

SMILES,Potency,"activity change, negative = inhibition"
O=C(Nc1ccccc1)Nc1cccc(-c2cn3cccnc3n2)c1,"inconclusive: 15.1 µM [inhibitor, partial curve]",
COc1ccc(C(=O)Nc2ccc(Nc3ccccc3)cc2)cc1[N+](=O)[O-],"inconclusive: 19 µM [inhibitor, partial curve]",
Cc1nc(-n2[nH]c3c(c2=O)CCCC3)[nH]c(=O)c1Cc1ccccc1,active: 19 µM,
O=C1CSC(=S)N1N=C1CCCCCC1,"inconclusive: 16.9 µM [inhibitor, single point]",
CCOC(=O)c1c(NC(=O)/C=C/C(=O)O)sc(C)c1-c1ccc(Cl)cc1,"inconclusive: 23.9 µM [inhibitor, partial curve]",
C[C@@H](NC(=O)c1nc[nH]c1C(=O)N[C@@H](Cc1ccccc1)C(=O)OC(C)(C)C)c1ccccc1,,inactive: -19.4%
CC(C)[C@H](NC(=O)c1ccccc1)C(=O)NC1CCCCCCC1,,inactive: -2.97%
O=C1Nc2ccc3sc4ccccc4c3c2C1=O,"inconclusive: 19 µM [inhibitor, partial curve]",
NC(=O)Cc1ccc(Nc2nnc(-c3ccc(O)cc3)c3ccccc23)cc1,"inconclusive: 19 µM [inhibitor, partial curve]",
CN(C)c1ccc(/C=C2\C=Cc3ccccc32)cc1F,"inconclusive: 7.57 µM [inhibitor, partial curve]",
O=S(=O)(c1ccc(Cl)s1)N1CCc2ccccc2C1,,inactive: 43.7%
CC(=O)Oc1ccc(C(=O)Nc2cc(NC(=O)c3ccc(OC(C)=O)cc3)cc(C(=O)NC(C)(C)C)c2)cc1,"inconclusive: 16.9 µM [inhibitor, partial curve]",
O=C(Nc1nncs1)c1cc(-c2ccco2)nc2ccccc12,active: 19 µM,
CN(C)c1ccc(CC(=O)N2CCCC(c3cc(C(=O)Nc4ccc(F)c(Cl)c4)no3)C2)cc1 (configuration not stated),"inconclusive: 16.9 µM [inhibitor, partial curve]",
Cn1c(=O)c2cc(S(=O)(=O)NCCC(=O)Nc3ccc(F)cc3F)ccc2n(C)c1=O,"inconclusive: 21.3 µM [inhibitor, partial curve]",
COc1ccccc1/C=N/N1CCN(c2ccc(Cl)cc2)CC1,"inconclusive: 13.5 µM [inhibitor, partial curve]",
Cn1c(-c2cccc([N+](=O)[O-])c2)cnc1NCc1cccc(F)c1,"inconclusive: 21.3 µM [inhibitor, partial curve]",
COC(=O)c1c(-c2ccc3ccccc3c2)csc1NC(=O)Cc1ccc(OC)c(OC)c1,"inconclusive: 9.53 µM [inhibitor, partial curve]",
Cc1ccc(-c2nc3ncccn3c2Nc2ccc3c(c2)OCO3)o1,"inconclusive: 21.3 µM [inhibitor, single point]",
COc1cccc(-c2nc(-c3ccccc3)c(-c3ccccc3)[nH]2)c1OCC(=O)O,"inconclusive: 21.3 µM [inhibitor, partial curve]",
CN(C)c1ccc(NS(=O)(=O)c2ccc(Cl)cc2)cc1,"inconclusive: 19 µM [inhibitor, partial curve]",
OCCN(CCO)c1nc(-c2ccccc2)nc2c1oc1ccccc12,"inconclusive: 9.53 µM [inhibitor, partial curve]",
COCCN(Cc1cc2cc3c(cc2nc1Cl)OCO3)C(=O)Nc1ccc(OC)cc1,,inactive: -8.91%
CC(=O)Oc1cccc2c1C(=O)C1CC=CC(OC(C)=O)C1C2=O (configuration not stated),active: 15.1 µM,

# An excerpt from above in order of formula weight, high to low.
SMILES,Potency,"activity change, negative = inhibition"
COc1ccc(N2CCN(C(=O)CCC(=O)N3CC(C)Oc4ccc(C)cc43)CC2)cc1 (configuration not stated),"inconclusive: 19 µM [inhibitor, partial curve]",
COc1ccc2[nH]cc(CCn3ccc(O)c(C/C=C/c4ccccc4)c3=O)c2c1,active: 21.3 µM,
CCn1c(=S)[nH]c2sc3c(c2c1=O)CCCC3,"inconclusive: 16.9 µM [inhibitor, partial curve]",
CCCC(=O)Oc1ccc2c(C)cc(=O)oc2c1,"inconclusive: 21.3 µM [inhibitor, partial curve]",
